Source: PubChem BioAssay AID493014 (National Center for Advancing Translational Sciences (NCATS), 2011)
This is one part of the list. The main result of the screen is listed elsewhere. These columns were measured beside it and carry no call. Compounds called inactive in the main read-out are mostly missing here. Potencies come from curve fits of mixed quality, noted in brackets.

Assay: qHTS Assay to Find Inhibitors of Chronic Active B-Cell Receptor Signaling
Details: ABC-DLBCL IkBa-CBG/CBR reporter, luminescence ratio (green luciferase fused to IkBa over red control in TMD8 lymphoma cells), 4 h
Method in brief: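 Cell line TMD8 (human ABC DLBCL), stably expressing tet-inducible CBG68-IkBa fusion and CBR; IMDM/0.5% FBS; cpd up to 46 uM; dox induction, 4 h, 37C/5% CO2; dual luminescence; green/red ratio; MG132 control.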

[1] = measured here: CBR red luminescence, cell number

Compound	AC50 [1]	AC50 (measured here: IkBa-CBG green luminescence)
O=C(Nc1ccn(Cc2ccccc2)n1)c1cccc(Cn2cc([N+](=O)[O-])cn2)c1	9.2 µM [falling, partial curve, poor fit]	–
COc1cc(/C=C2/S/C(=N/S(=O)(=O)c3ccccc3)NC2=O)c([N+](=O)[O-])cc1OC	20.6 µM [rising, partial curve]	18.4 µM [falling, partial curve, poor fit]
O=C1NNC(c2ccccc2)=N/C1=C\c1ccc(Cl)cc1	31.6 µM [rising, single point]	–
N#CC1=C(S)N(c2ccccc2)C(c2ccco2)NC1=O (configuration not stated)	35.5 µM [falling, single point]	–
COc1ccc(/C=C/C(=O)c2ccc(O)cc2)cc1	8.91 µM [falling, partial curve, poor fit]	–
COc1ccccc1NC(=O)c1ccc(NC(=O)CSc2ncccn2)cc1	35.5 µM [rising, single point]	–
Cc1cc(NC(=O)NC(=O)c2cccc(OC(F)(F)C(F)F)c2)n[nH]1	1.84 µM [falling, partial curve, poor fit]	–
CCN1C(=O)/C(=C/c2ccc(C)o2)N(C)C1=S	14.6 µM [falling, single point]	–
COc1ccc(NCc2ccc([N+](=O)[O-])s2)c(OC)c1	32.6 µM [rising, partial curve, poor fit]	–
O=C(NCCc1ccc(F)cc1)c1cc(=O)c2ccccc2o1	20 µM [falling, partial curve, poor fit]	–
Cc1cccc(NC(=O)CSc2nc3ccccc3o2)c1	0.58 µM [rising, partial curve, poor fit]	–
Cc1ccc(C)c(OCCN2C(=O)NC3(CCc4ccccc4C3)C2=O)c1 (configuration not stated)	29.1 µM [falling, single point]	–
CS(=O)(=O)N(CC(=O)N1CCN(c2cccc(Cl)c2)CC1)C1CCCCC1	0.731 µM [falling, partial curve, poor fit]	–
Nc1ccc(C(=O)NCCCSc2ccccc2)cc1[N+](=O)[O-]	1.78 µM [falling, full curve, poor fit]	–
CCOC(=O)N1CCC(NC(=O)c2cc(C(=O)NCc3cccc(Cl)c3)ccc2CO)CC1	18.4 µM [rising, single point]	–
CCN1CCN(c2ncnc3scc(-c4ccc(OC)cc4)c23)CC1	35.5 µM [falling, single point]	–
CC(=O)[C@@]12O[C@@H]1C[C@H]1[C@@H]3CC[C@H]4C[C@@H](O)CC[C@]4(C)[C@H]3CC[C@@]12C	11.2 µM [rising, partial curve, poor fit]	–
COc1ccc(C(=O)N2CCSC2=S)cc1OC	18.4 µM [falling, single point]	–
COCCn1c(SCC(=O)Nc2cc(C)on2)nnc1-c1c[nH]c2ccccc12	6.51 µM [rising, full curve, poor fit]	–
COc1ccc(C=C2C(=O)c3ccccc3C2=O)cc1O	7.08 µM [falling, full curve, poor fit]	–
COc1ccccc1C(=O)NNC(=O)C1CC=CCC1 (configuration not stated)	7.94 µM [falling, partial curve]	–
Cc1ccccc1/C=N/Nc1ncnc2nc[nH]c12	11.2 µM [falling, partial curve, poor fit]	–

Filtered by structure, those above containing two or more sulfur atoms (2)
Compound	AC50 [1]	AC50 (measured here: IkBa-CBG green luminescence)
COc1cc(/C=C2/S/C(=N/S(=O)(=O)c3ccccc3)NC2=O)c([N+](=O)[O-])cc1OC	20.6 µM [rising, partial curve]	18.4 µM [falling, partial curve, poor fit]
COc1ccc(C(=O)N2CCSC2=S)cc1OC	18.4 µM [falling, single point]	–

An excerpt of these results, comma-delimited.
Compound,AC50 [1],AC50 (measured here: IkBa-CBG green luminescence)
COc1ccc(NCc2ccc([N+](=O)[O-])s2)c(OC)c1,"32.6 µM [rising, partial curve, poor fit]",–
O=C(NCCc1ccc(F)cc1)c1cc(=O)c2ccccc2o1,"20 µM [falling, partial curve, poor fit]",–

(more compounds)

Compound	AC50 [1]	AC50 (measured here: IkBa-CBG green luminescence)
CC(C)(O)C(O)COc1c2ccoc2cc2oc(=O)ccc12 (configuration not stated)	2.51 µM [rising, full curve, poor fit]	–
Cn1cnnc1SCC(=O)Nc1ccc(Oc2ccccc2)cc1	8.91 µM [falling, partial curve, poor fit]	–
COC(=O)COc1ccccc1/C=C1/NC(=O)NC1=O	4.11 µM [rising, full curve, poor fit]	–
C/C(=N/NC(=O)c1ccc(Br)o1)c1cccc(NC(=O)c2ccc(F)cc2)c1	25.1 µM [falling, single point]	–
CCN(c1ccccc1)S(=O)(=O)c1ccc(C(=O)N(C)Cc2cccs2)cc1	25.9 µM [falling, single point]	–
Cc1ccc(N2C(S)=C(C#N)C(=O)NC23CCCCC3)cc1	25.9 µM [rising, partial curve, poor fit]	–
COc1ccc(NC(=S)NCc2ccccn2)cc1OC	22.4 µM [falling, single point]	–
COc1ccc(CSc2nnnn2Cc2ccccc2)cc1OC	16.4 µM [rising, single point]	–
CCn1c(=O)n(CC(=O)NCc2ccco2)c(=O)c2ccccc21	14.1 µM [falling, single point]	–
O=C(NCC(=O)N1CCOCC1)OCc1ccccc1	22.4 µM [rising, partial curve, poor fit]	–
CCCCCC/C=N/Nc1nnc(Cc2ccc(OC)c(OC)c2)c(=O)[nH]1	0.0891 µM [rising, full curve, poor fit]	–
COC(=O)c1ccccc1NC(=O)CN1CCN(Cc2ccccc2)CC1	0.112 µM [rising, full curve, poor fit]	–
CC1C/C(=N/NC(=O)c2cccc(F)c2)c2ccc(O)cc2C1 (configuration not stated)	16.4 µM [falling, single point]	–
OC1(Cc2cc(-c3ccccc3)no2)CCN(CCCc2ccccc2)CC1	12.6 µM [falling, partial curve, poor fit]	–
CCCc1cc(=O)oc2cc(C)cc(OC(C)C(=O)NCC(O)c3ccccc3)c12 (configuration not stated)	12.6 µM [falling, partial curve]	–
COc1ccc(S(=O)(=O)N2CCCC2)c(C)c1C	2.82 µM [rising, full curve]	–
CC(=O)NC(Cc1ccccc1)C(=O)OCC(=O)c1ccccc1 (configuration not stated)	11.6 µM [rising, partial curve, poor fit]	–
O=CNCc1nc2ccccc2n1CCc1ccccc1	28.2 µM [falling, partial curve, poor fit]	–
O=C(/C=C/c1ccc(Cl)cc1)NCc1ccco1	20.6 µM [falling, single point]	–
Nc1nc(Cl)cc(Oc2ccc(Cl)cc2)n1	22.4 µM [rising, partial curve, poor fit]	–
CCCCc1cc(=O)oc2cc(OCC(=O)NCc3ccccn3)c(Cl)cc12	35.5 µM [rising, partial curve, poor fit]	–
COc1ccc(C)cc1-n1nnnc1SCC(=O)N1CCC(C(=O)Nc2nccs2)CC1	35.5 µM [falling, single point]	–

Compound	AC50 [1]	AC50 (measured here: IkBa-CBG green luminescence)
Cc1cc2c(c(N)n1)c(=O)oc1ccccc12	2.82 µM [falling, full curve]	–
CCn1c(SCC(=O)N2CCc3ccccc32)nnc1-c1c[nH]c2ccccc12	0.146 µM [falling, full curve, poor fit]	–
Nc1nonc1-c1noc(CCCN2C(=O)c3ccccc3C2=O)n1	12.6 µM [rising, partial curve]	–
C=CCc1cc(/C=C/c2nc(O)c([N+](=O)[O-])c(=O)[nH]2)cc(OC)c1O	5.62 µM [falling, full curve]	–
O=C(/C=C/c1ccco1)Nc1cccnc1Cl	31.6 µM [falling, single point]	–
O=C(O)C1=C[C@@H](c2ccc3c(c2)OCO3)C[C@@H](OCCCCO)O1	4.47 µM [rising, single point]	–
COc1cccc(C(=O)/C=C/Nc2ccc(NC(C)=O)cc2)c1	6.51 µM [rising, single point]	–
CN(c1ccc(OCC(=O)N2CCC(C(N)=O)CC2)cc1)S(=O)(=O)c1cccs1	0.0082 µM [falling, full curve, poor fit]	–
O=C(CCN1C(=O)c2ccccc2C1=O)Nc1cccc(S(=O)(=O)N2CCCCC2)c1	5.8 µM [rising, partial curve]	–
COCC(=O)NCCNc1nc2ccc(C)cc2cc1C	22.4 µM [rising, single point]	–
O=C(c1nc2ccccn2c1CNCC1OCCc2ccccc21)N1CCOCC1 (configuration not stated)	35.5 µM [rising, single point]	–
Cc1cccc(C(=O)NNC(=S)NC(=O)c2cccs2)c1	10 µM [falling, partial curve]	–
Cn1cccc1CC(=O)NNC(=S)Nc1ccccc1Cl	6.51 µM [rising, single point]	–
CCOC(=O)COc1nc(C)c(Br)c(OC)n1	8.91 µM [rising, partial curve, poor fit]	–
Cc1cc(C)c(S(=O)(=O)NCCc2csc3nc(-c4ccc(Cl)cc4)nn23)c(C)c1	35.5 µM [falling, single point]	–
O=C1c2ccccc2NC(c2ccccn2)N1NS(=O)(=O)c1ccccc1 (configuration not stated)	0.316 µM [rising, full curve]	–
COc1ccccc1NC(=S)N(Cc1ccc(C)cc1)Cc1ccccn1	14.1 µM [falling, single point]	–
COCCn1c(SCC(=O)c2c(-c3ccccc3)n(C)c3ccccc23)nnc1-c1ccncc1	16.4 µM [falling, partial curve]	–
CCCCC(C(=O)NC(C)(C)C)N(Cc1ccccc1Cl)C(=O)c1snc(C(N)=O)c1N (configuration not stated)	11.2 µM [rising, partial curve]	–
Cc1ccc(CONC(=O)c2ccccc2)cc1	8.91 µM [falling, partial curve, poor fit]	–
CSc1c(-c2ccccn2)c(N)nn1C(=O)C1CCC1	15.8 µM [rising, single point]	–
CCOC(=O)c1sc(NC(=O)CSc2nc3cccnc3n2C)nc1C	0.794 µM [falling, full curve, poor fit]	–
